According to US7674831B2, “Heterocyclic compounds as sweetener enhancers” (Redpoint Bio Corporation, priority 2006, dated 2010):
Some results were stated once for a whole list of compounds, not compound by compound.

Target: T1, human TRPM5 (Homo sapiens, UniProt Q9NZQ8)
T1 construct: expressed in transfected cells
T1 sequence (Q9NZQ8 1-1165): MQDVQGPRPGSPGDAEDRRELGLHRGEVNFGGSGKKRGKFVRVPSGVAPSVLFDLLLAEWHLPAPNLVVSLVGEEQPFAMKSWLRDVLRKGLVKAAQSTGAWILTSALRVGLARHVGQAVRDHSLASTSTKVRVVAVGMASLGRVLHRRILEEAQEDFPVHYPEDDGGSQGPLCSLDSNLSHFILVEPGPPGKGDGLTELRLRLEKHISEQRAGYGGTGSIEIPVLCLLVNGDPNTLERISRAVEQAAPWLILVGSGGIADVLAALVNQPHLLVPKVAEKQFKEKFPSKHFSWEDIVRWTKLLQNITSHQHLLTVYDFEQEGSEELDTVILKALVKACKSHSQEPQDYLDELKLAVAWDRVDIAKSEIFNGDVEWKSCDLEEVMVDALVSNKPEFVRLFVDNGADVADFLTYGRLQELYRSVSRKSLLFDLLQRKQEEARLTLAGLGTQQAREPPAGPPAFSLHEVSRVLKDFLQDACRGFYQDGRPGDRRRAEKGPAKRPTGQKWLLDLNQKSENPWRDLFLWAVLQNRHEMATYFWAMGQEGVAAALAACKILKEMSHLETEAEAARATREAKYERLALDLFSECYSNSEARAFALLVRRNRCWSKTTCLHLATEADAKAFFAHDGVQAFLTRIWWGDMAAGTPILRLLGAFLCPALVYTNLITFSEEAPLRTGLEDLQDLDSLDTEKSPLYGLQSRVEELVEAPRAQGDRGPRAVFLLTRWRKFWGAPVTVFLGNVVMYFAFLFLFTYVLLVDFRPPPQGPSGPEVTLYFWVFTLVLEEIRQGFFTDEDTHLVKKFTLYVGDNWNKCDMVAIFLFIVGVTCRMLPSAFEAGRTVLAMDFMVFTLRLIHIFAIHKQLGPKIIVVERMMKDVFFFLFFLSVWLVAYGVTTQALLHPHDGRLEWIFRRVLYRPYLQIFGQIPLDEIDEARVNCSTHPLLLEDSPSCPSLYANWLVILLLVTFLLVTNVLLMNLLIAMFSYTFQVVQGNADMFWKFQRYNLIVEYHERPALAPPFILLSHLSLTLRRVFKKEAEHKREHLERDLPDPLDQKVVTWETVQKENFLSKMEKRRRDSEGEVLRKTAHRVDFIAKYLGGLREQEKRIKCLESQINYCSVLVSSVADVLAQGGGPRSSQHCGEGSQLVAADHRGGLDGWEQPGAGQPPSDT
Assay: TRPM5 membrane potential dye FLIPR assay in hTRPM5-HEK293 cells, ATP stimulated
Assay type: cell-based
Settings: for increase of TRPM5 activity (ratio of ATP signal alone vs. signal in presence of compound): 0.1 μM ATP (sub-optimal), in some cases; for effect on ATP concentration-effect function for membrane potential (TRPM5 activity): 30 micromolar compound, low ATP concentrations, hTRPM5-HEK293 cells
Description: The activity of human TRPM5 ion channel was measured in live cells on a fluorescent imaging plate reader (FLIPR). The basis of the assay (shown in FIG. 1) is the calcium-dependent activation of the ion channel which occurs via by activation of a G-protein coupled receptor (GPCR). GPCR activation by an appropriate agonist causes a transient increase in […] Ca^2+ ion concentration which in turn causes the ion channel to open, letting in Na^+ ions. This influx causes a change in the membrane potential of the cell which can be monitored as a change in the fluorescent signal from voltage-dependent (membrane potential) fluorescent dyes.
For the screening assay, the human TRPM5 gene was cloned, put into HEK293 cells, and a stable, high expression clone was used for screening. Cells were grown in standard media at 37° C. The day before screening, the cells were removed from flasks and added to 384 well clear bottom plates (8K cells in 20 μL/well). On the assay day, 20 μL of membrane potential dye (Part No. R8123, Molecular Devices Corp.) was added to the cells and dye was allowed to be taken up, i.e., load, into the cells for 1 hr at 37° C. […] The assay was started by addition of 10 μL of solution from the compound plate into the cell plate. During this process, continuous fluorescent recordings were made simultaneously for all wells. After addition of the compound solution, the tips were automatically washed and a stimulation solution of 3 μM ATP to activate TRPM5 (an agonist for an endogenous purinurgic GPCR), was added to all wells of the cell plate. The height of the response was calculated and percent inhibition or enhancement values, versus negative control wells, was calculated for the test samples. Exemplary results are shown in the upper left graph of FIG. 3.

Compound | increase of TRPM5 activity (ratio of ATP signal alone vs. signal in presence of compound) [×] | effect on ATP concentration-effect function for membrane potential (TRPM5 activity)
COC(=O)c1sccc1Oc1ccc([N+](=O)[O-])cn1 [Example 3] | > 10 | selective enhancement of TRPM5 activity
Cc1ccc(-c2cn3ncsc3n2)cc1 [Example 5, 6-p-Tolylimidazo[2,1-b][1,3,4]thiadiazole] | > 10 | selective enhancement of TRPM5 activity
COc1cc(NS(=O)(=O)c2ccc(NC(=O)c3ccc([N+](=O)[O-])cc3)cc2)nc(OC)n1 [Example 18, N-(4-(((2,6-Dimethoxypyrimidin-4-yl)amino)sulfonyl)phenyl)-4-nitrobenzamide] | > 10 | selective enhancement of TRPM5 activity
CCOC(=O)C/N=c1\sc2ccccc2n1C [Example 1, Ethyl 2-(3-Methylbenzo[d]thiazol-2(3H)-ylideneamino)acetate] | > 10 | selective enhancement of TRPM5 activity
COc1ccccc1OCCSc1nc2ccccc2[nH]1 [Example 2, 2-(2-(2-Methoxyphenoxy)ethylthio)-1H-benzimidazole] | > 10 | selective enhancement of TRPM5 activity
